{"source": "PubChem BioAssay AID504784 – Drosophila RNAi Screening Center – 2011", "assay": "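Search for regulators of lipid droplet storage in oleate-fed fly cells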 (primary screen)", "system": "Drosophila Kc167 embryonic cells", "reagents": "long dsRNA against Drosophila genes, about 250 ng dsRNA per well", "time to read-out": "4 days", "conditions": "cells fed 400 µM oleic acid bound to BSA", "detection": "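Cells imaged and segmented; ratio of lipid droplet area to nuclear area, log-transformed, then normalised as a B-score over the screen; higher means more stored lipid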", "direction": "droplet/nuclear area B-score: higher = more stored lipid (overstorage)", "note": "In all, the deposit lists about 17,000 reagents; below is an unselected part of those with a known target gene and a result. 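Each column is one replicate's B-score; the combined score over replicates was not deposited, so single values may mislead.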 A plus sign joins genes that one reagent is predicted to hit. Further read-outs or replicates are left out here."}
{"gene": "Ccp84Ag", "amplicon": "DRSC12592", "droplet/nuclear area B-score, replicate 1": 0.968}
{"gene": "Ccp84Ag", "amplicon": "DRSC22085", "droplet/nuclear area B-score, replicate 1": 2.01}
{"gene": "CG15024", "amplicon": "DRSC08478", "droplet/nuclear area B-score, replicate 1": 0.0098}
{"gene": "CG13640", "amplicon": "DRSC14639", "droplet/nuclear area B-score, replicate 1": 0.08}
{"gene": "yellow-f2", "amplicon": "DRSC16372", "droplet/nuclear area B-score, replicate 1": 0.902}
{"gene": "SmydA-7", "amplicon": "DRSC07340", "droplet/nuclear area B-score, replicate 1": 0.0192}
{"gene": "PH4alphaSG2", "amplicon": "DRSC15037", "droplet/nuclear area B-score, replicate 1": -2.3}
{"gene": "reb", "amplicon": "DRSC06308", "droplet/nuclear area B-score, replicate 1": -0.0386}
{"gene": "CG1324", "amplicon": "DRSC20496", "droplet/nuclear area B-score, replicate 1": 0.00892}
{"gene": "Cad96Cb", "amplicon": "DRSC14243", "droplet/nuclear area B-score, replicate 1": -0.0627}
{"gene": "Cad96Cb", "amplicon": "DRSC14665", "droplet/nuclear area B-score, replicate 1": -1.95}
{"gene": "CG43897", "amplicon": "DRSC10965", "droplet/nuclear area B-score, replicate 1": -0.417}
{"gene": "CG43897", "amplicon": "DRSC10967", "droplet/nuclear area B-score, replicate 1": 0.16}
{"gene": "CG43897", "amplicon": "DRSC21583", "droplet/nuclear area B-score, replicate 1": 1.49}
{"gene": "CG17652", "amplicon": "DRSC00511", "droplet/nuclear area B-score, replicate 1": -0.597}
{"gene": "CycD", "amplicon": "DRSC20233", "droplet/nuclear area B-score, replicate 1": -0.343}
{"gene": "Nepl16", "amplicon": "DRSC14650", "droplet/nuclear area B-score, replicate 1": -0.134}
{"gene": "qsm", "amplicon": "DRSC05896", "droplet/nuclear area B-score, replicate 1": 0.505}
{"gene": "qsm", "amplicon": "DRSC06393", "droplet/nuclear area B-score, replicate 1": 0.499}
{"gene": "CG17104", "amplicon": "DRSC02573", "droplet/nuclear area B-score, replicate 1": -0.0333}
{"gene": "CG12795", "amplicon": "DRSC00354", "droplet/nuclear area B-score, replicate 1": 0.14}
{"gene": "Ciz1", "amplicon": "DRSC09675", "droplet/nuclear area B-score, replicate 1": 0.318}
{"gene": "brv1", "amplicon": "DRSC11076", "droplet/nuclear area B-score, replicate 1": 0.329}
{"gene": "Zw", "amplicon": "DRSC20303", "droplet/nuclear area B-score, replicate 1": -0.702}
{"gene": "Spn28F", "amplicon": "DRSC03615", "droplet/nuclear area B-score, replicate 1": -0.0469}
{"gene": "CG5412", "amplicon": "DRSC15796", "droplet/nuclear area B-score, replicate 1": -0.337}
{"gene": "CG11099", "amplicon": "DRSC06034", "droplet/nuclear area B-score, replicate 1": -0.0162}
{"gene": "CG31959 (retired record)", "amplicon": "DRSC22912", "droplet/nuclear area B-score, replicate 1": -1.34}
{"gene": "CR11023", "amplicon": "DRSC00302", "droplet/nuclear area B-score, replicate 1": -0.00585}
{"gene": "dao", "amplicon": "DRSC01960", "droplet/nuclear area B-score, replicate 1": 1.95}
{"gene": "Wnt5", "amplicon": "DRSC20300", "droplet/nuclear area B-score, replicate 1": -1.03}
{"gene": "MFS10", "amplicon": "DRSC19888", "droplet/nuclear area B-score, replicate 1": 0.107}
{"gene": "Ccdc85", "amplicon": "DRSC00501", "droplet/nuclear area B-score, replicate 1": 2.74}
{"gene": "Ccdc85", "amplicon": "DRSC23173", "droplet/nuclear area B-score, replicate 1": -0.817}
{"gene": "egh", "amplicon": "DRSC18771", "droplet/nuclear area B-score, replicate 1": 0.0868}
{"gene": "Dpy-30L1", "amplicon": "DRSC02959", "droplet/nuclear area B-score, replicate 1": -1.07}
{"gene": "Tango10", "amplicon": "DRSC19807", "droplet/nuclear area B-score, replicate 1": -1.54}
{"gene": "mtg", "amplicon": "DRSC16256", "droplet/nuclear area B-score, replicate 1": 2.23}
{"gene": "CG9400", "amplicon": "DRSC20182", "droplet/nuclear area B-score, replicate 1": -0.903}
{"gene": "e(y)3", "amplicon": "DRSC19450", "droplet/nuclear area B-score, replicate 1": 0.0917}
{"gene": "CAH14", "amplicon": "DRSC04234", "droplet/nuclear area B-score, replicate 1": 1.21}
{"gene": "CAH14", "amplicon": "DRSC22160", "droplet/nuclear area B-score, replicate 1": -0.0732}
{"gene": "Dsor1", "amplicon": "DRSC18462", "droplet/nuclear area B-score, replicate 1": 0.468}
{"gene": "CG6701", "amplicon": "DRSC07007", "droplet/nuclear area B-score, replicate 1": -5.02}
{"gene": "Gba1a", "amplicon": "DRSC21494", "droplet/nuclear area B-score, replicate 1": -0.0415}
{"gene": "CG9649", "amplicon": "DRSC16534", "droplet/nuclear area B-score, replicate 1": 0.774}
{"gene": "CG11041", "amplicon": "DRSC06025", "droplet/nuclear area B-score, replicate 1": -0.749}
{"gene": "CR12628 + Mgstl", "amplicon": "DRSC03702", "droplet/nuclear area B-score, replicate 1": 0.026}
{"gene": "CR12628 + Mgstl", "amplicon": "DRSC20568", "droplet/nuclear area B-score, replicate 1": 0.0827}
{"gene": "CG2145", "amplicon": "DRSC19835", "droplet/nuclear area B-score, replicate 1": -0.734}
{"gene": "CG1806", "amplicon": "DRSC19787", "droplet/nuclear area B-score, replicate 1": -0.563}

Reprinted from above (6 entries):
{"gene": "Ciz1", "amplicon": "DRSC09675", "droplet/nuclear area B-score, replicate 1": 0.318}
{"gene": "brv1", "amplicon": "DRSC11076", "droplet/nuclear area B-score, replicate 1": 0.329}
{"gene": "Zw", "amplicon": "DRSC20303", "droplet/nuclear area B-score, replicate 1": -0.702}
{"gene": "Spn28F", "amplicon": "DRSC03615", "droplet/nuclear area B-score, replicate 1": -0.0469}
{"gene": "CG5412", "amplicon": "DRSC15796", "droplet/nuclear area B-score, replicate 1": -0.337}
{"gene": "CG11099", "amplicon": "DRSC06034", "droplet/nuclear area B-score, replicate 1": -0.0162}
